From article PMC4499137 come the findings set out here.

The chains behind the UniProt entries cited, without tags or fusion partners.
UniProt Q9BQ67: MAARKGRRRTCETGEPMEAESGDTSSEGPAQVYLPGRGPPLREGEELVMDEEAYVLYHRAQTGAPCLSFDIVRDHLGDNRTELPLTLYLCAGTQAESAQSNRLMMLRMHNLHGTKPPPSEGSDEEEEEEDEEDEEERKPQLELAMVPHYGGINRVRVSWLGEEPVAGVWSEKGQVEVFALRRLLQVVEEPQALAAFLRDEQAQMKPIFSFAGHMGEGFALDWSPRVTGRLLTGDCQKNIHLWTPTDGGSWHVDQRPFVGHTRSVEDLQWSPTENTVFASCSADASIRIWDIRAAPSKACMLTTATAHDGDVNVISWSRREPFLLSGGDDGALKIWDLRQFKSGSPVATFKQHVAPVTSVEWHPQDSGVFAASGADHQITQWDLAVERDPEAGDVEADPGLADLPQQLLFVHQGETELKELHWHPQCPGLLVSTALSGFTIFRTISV

In one test the target is T1, GST-CDC6 (UniProt Q99741).
T1 sequence: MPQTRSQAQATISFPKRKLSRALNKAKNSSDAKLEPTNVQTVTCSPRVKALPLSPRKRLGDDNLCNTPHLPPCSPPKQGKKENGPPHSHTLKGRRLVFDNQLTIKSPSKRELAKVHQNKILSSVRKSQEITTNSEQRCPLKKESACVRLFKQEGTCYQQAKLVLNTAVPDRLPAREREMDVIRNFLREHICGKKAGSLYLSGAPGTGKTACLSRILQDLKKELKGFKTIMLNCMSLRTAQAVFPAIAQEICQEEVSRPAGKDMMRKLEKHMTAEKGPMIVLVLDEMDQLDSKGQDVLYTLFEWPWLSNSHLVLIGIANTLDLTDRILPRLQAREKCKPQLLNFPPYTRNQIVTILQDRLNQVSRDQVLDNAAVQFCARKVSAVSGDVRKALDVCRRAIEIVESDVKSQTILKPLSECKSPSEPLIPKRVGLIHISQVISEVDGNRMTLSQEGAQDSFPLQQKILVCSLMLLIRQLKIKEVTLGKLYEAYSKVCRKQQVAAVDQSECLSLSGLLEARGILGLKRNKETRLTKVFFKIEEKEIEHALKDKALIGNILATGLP
In words: pull-down; GST-Cdt1, GST-CDC6 or GST incubated with bacterially produced GRWD1 or its truncated mutants; collected on glutathione beads; immunoblotting with anti-GRWD1 or anti-GST; both purified. (Immunoblotting shows a protein as a band on a membrane.)

For test [1], the target named is T2, endogenous CDC6 (human (endogenous in HEK293T)) (UniProt Q99741).
T2 sequence: T1 sequence
In words: co-IP; nuclear extracts from HEK293T cells immunoprecipitated with anti-CDC6 antibody; immunoblotting.

The target in test [2] is T3, overexpressed CDC6 (Figure 2C) (UniProt Q99741).
T3 sequence: T1 sequence
In words: co-IP; soluble extracts from transfected HEK293T cells; first immunoprecipitation with anti-Flag, elution with Flag peptide, second immunoprecipitation with anti-T7; immunoblotting.

In test [3] the target is endogenous GRWD1 (glutamate-rich WD40 repeat containing 1) (human (endogenous in HEK293T)) (UniProt Q9BQ67). In words: co-IP; HEK293T cells transfected with empty or T7-Cdt1 expression vectors; immunoprecipitated with anti-GRWD1 antibody or control rabbit IgG; immunoblotting.

Results are given in words; binding and its absence hold for the method and conditions named. For some of these results: Binding seen in cells or lysates may run through a third protein. Some entries that bind do so weakly or less than the wild type. For some of these results: Sequences can lack the tags named with a protein.

With “bacterially produced full length GRWD1 (from UniProt Q9BQ67 1-446)”, the binding entry with GST-CDC6 was “binds”.

As to “endogenous GRWD1 (glutamate-rich WD40 repeat containing 1) (from UniProt Q9BQ67 1-446)”, the binding result in test [1] is given as “binds”.

Consider “overexpressed GRWD1 (Figure 2C) (from UniProt Q9BQ67 1-446)”, for which the binding result in test [2] is “binds”.

B1: endogenous CDC6 (protein, UniProt Q99741 1-560)
chain: T1 sequence
With B1, the binding entry in test [3] was “binds”.
